This passage reports log2 fold change results from the supplement of paper PMC12819154, “High-throughput peptide-centric local stability assay extends protein–ligand identification to membrane proteins, tissues and bacteria” (Nature Structural & Molecular Biology, 2025).

Amino acid sequences for entries named in this document (tags omitted). A change or cut given only in a name is not applied to a line headed by its entry.
UniProt Q62255: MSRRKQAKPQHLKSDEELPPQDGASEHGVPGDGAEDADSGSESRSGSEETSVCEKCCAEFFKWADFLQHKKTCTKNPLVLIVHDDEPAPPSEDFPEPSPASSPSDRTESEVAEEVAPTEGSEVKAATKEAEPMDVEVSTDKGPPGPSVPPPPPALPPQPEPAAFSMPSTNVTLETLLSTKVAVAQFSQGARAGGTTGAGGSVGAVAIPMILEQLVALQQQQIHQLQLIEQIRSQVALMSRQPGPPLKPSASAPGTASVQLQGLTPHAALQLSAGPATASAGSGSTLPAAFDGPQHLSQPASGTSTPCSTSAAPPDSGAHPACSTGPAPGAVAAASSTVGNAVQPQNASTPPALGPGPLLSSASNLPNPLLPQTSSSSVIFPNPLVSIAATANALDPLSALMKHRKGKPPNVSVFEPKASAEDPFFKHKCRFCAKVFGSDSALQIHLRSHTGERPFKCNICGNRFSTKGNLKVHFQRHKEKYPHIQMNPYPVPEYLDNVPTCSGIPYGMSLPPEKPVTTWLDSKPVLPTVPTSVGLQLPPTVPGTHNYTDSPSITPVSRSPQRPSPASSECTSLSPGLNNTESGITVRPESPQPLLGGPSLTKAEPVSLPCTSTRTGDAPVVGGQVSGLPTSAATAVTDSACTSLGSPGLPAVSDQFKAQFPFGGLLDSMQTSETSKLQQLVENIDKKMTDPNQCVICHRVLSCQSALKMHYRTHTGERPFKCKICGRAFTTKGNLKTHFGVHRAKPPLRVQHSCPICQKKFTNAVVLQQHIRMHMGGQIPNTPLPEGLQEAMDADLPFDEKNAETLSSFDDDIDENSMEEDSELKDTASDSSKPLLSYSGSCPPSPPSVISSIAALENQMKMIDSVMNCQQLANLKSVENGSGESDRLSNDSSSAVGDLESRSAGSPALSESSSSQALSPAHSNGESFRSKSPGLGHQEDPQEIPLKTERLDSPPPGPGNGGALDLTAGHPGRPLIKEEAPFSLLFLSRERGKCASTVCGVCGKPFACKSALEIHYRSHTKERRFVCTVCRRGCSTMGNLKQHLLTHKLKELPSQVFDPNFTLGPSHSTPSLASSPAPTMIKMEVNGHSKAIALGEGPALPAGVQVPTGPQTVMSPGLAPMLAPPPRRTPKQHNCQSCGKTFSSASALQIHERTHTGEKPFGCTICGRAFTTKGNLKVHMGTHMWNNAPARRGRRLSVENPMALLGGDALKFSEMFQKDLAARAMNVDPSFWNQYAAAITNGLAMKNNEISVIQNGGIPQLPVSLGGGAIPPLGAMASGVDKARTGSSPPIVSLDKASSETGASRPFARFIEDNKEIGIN
UniProt Q62318: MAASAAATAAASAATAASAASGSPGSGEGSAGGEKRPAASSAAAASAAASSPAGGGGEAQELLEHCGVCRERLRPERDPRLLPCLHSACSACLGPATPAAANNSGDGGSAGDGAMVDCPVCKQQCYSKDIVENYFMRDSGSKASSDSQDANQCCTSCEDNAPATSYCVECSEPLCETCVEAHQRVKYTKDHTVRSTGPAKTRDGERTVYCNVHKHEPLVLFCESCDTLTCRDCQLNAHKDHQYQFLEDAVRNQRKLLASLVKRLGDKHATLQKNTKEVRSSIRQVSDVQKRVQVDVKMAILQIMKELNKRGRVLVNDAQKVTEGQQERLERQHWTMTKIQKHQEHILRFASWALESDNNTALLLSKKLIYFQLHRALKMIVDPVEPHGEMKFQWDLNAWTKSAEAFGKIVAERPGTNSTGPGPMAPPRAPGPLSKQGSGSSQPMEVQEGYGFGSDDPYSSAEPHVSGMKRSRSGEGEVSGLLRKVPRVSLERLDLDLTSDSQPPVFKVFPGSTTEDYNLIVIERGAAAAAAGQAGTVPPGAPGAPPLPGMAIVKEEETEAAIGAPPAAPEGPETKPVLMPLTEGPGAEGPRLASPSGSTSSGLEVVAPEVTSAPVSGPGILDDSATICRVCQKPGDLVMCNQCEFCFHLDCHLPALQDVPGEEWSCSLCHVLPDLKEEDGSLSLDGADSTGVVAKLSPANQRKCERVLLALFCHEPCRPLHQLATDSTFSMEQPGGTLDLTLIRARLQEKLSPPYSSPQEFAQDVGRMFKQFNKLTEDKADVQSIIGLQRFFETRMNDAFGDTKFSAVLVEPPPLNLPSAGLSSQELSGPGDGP
UniProt Q64374: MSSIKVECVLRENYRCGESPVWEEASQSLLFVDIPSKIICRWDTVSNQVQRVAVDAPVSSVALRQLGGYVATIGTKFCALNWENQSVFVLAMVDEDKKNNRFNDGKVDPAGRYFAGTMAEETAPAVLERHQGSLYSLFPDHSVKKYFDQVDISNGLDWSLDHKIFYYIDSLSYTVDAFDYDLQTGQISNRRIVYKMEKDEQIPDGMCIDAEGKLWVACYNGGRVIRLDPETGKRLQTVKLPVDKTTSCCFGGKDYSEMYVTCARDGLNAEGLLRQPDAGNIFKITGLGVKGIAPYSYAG
UniProt Q61937, whole entry: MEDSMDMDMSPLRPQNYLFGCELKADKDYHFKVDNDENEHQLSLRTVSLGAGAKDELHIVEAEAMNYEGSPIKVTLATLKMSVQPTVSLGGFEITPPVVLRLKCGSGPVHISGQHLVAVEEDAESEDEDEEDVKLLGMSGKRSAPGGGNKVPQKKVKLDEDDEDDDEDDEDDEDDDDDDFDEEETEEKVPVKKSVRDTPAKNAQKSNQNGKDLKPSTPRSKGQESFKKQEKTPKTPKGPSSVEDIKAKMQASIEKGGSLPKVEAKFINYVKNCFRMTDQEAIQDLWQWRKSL
UniProt Q64435: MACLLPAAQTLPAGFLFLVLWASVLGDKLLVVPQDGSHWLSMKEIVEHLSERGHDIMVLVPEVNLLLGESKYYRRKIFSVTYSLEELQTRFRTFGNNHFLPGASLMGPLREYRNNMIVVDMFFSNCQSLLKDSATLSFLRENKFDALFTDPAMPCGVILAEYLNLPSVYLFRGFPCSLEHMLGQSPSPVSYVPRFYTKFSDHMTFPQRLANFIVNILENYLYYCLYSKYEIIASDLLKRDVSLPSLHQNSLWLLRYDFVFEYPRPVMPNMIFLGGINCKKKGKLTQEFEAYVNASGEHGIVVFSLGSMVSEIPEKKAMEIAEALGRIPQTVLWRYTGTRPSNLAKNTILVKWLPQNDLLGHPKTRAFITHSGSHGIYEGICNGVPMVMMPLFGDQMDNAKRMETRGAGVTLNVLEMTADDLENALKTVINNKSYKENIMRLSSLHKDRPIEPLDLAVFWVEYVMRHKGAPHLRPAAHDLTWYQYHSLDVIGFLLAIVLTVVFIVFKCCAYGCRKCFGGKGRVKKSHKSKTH
UniProt Q641K1: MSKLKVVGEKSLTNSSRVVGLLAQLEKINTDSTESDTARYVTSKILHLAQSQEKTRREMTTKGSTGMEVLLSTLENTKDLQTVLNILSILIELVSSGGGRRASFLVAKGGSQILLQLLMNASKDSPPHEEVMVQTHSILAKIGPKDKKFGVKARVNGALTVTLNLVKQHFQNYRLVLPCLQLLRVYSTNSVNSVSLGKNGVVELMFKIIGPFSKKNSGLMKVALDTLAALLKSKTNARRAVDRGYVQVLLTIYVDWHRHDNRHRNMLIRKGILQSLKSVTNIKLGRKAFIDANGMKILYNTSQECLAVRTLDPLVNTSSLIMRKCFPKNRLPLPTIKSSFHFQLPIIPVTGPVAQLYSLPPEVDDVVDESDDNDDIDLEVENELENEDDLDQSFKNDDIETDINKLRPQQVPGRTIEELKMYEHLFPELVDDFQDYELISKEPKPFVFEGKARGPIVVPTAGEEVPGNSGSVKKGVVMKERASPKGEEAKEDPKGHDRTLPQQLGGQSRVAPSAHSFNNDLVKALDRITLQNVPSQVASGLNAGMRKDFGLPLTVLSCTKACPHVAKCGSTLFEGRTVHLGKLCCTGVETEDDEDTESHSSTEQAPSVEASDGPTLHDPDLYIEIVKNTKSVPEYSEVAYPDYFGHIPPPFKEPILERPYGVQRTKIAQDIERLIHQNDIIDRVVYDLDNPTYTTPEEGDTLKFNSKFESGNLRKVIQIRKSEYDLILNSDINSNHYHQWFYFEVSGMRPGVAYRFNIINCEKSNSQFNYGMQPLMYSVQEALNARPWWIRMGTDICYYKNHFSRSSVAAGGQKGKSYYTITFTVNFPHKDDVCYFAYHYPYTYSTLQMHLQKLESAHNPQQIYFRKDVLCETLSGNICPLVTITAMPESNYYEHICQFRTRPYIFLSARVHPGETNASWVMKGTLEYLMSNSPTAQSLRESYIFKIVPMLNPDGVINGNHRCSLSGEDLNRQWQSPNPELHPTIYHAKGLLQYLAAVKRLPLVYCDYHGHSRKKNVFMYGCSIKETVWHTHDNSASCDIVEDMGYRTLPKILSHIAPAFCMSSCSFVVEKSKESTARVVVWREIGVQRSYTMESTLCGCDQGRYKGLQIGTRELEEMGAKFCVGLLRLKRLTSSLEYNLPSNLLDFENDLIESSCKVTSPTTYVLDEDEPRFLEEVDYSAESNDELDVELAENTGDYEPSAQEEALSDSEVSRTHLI
UniProt Q64321: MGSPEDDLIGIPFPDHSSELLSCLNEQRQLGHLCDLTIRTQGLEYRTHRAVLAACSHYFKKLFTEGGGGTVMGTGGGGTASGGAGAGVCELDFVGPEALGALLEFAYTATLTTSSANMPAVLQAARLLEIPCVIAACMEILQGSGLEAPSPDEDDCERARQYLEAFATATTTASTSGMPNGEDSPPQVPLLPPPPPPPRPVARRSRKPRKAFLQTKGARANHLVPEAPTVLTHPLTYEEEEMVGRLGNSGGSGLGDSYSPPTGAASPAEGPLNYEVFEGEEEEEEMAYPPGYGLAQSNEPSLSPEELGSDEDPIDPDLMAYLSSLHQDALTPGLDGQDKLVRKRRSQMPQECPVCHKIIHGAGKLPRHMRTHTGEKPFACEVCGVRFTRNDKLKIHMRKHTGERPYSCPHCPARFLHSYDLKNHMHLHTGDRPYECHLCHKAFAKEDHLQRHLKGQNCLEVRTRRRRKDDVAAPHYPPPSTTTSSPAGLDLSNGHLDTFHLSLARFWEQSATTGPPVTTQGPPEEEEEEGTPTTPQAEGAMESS
UniProt Q62179: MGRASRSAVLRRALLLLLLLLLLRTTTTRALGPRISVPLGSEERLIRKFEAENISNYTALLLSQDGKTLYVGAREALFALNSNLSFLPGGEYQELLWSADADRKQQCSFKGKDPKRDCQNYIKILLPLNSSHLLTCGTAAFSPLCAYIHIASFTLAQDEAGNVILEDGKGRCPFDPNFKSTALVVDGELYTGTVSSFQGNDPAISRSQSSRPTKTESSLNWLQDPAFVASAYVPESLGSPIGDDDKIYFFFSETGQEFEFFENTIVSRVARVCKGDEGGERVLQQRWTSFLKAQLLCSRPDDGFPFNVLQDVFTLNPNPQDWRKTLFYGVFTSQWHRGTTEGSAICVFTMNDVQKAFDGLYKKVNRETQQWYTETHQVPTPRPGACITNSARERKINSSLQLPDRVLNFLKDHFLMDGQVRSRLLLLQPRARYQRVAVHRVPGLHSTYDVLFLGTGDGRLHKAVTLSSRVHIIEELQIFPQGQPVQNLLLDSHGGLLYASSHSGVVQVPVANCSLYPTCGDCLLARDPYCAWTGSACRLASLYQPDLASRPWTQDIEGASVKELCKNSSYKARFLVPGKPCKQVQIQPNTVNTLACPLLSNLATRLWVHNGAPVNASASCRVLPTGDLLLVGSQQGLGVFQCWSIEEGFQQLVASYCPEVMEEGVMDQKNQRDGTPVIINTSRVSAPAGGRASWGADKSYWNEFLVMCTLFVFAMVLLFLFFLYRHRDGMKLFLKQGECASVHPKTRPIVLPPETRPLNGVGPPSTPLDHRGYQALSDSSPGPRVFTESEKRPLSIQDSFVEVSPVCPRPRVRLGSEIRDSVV
UniProt Q64521: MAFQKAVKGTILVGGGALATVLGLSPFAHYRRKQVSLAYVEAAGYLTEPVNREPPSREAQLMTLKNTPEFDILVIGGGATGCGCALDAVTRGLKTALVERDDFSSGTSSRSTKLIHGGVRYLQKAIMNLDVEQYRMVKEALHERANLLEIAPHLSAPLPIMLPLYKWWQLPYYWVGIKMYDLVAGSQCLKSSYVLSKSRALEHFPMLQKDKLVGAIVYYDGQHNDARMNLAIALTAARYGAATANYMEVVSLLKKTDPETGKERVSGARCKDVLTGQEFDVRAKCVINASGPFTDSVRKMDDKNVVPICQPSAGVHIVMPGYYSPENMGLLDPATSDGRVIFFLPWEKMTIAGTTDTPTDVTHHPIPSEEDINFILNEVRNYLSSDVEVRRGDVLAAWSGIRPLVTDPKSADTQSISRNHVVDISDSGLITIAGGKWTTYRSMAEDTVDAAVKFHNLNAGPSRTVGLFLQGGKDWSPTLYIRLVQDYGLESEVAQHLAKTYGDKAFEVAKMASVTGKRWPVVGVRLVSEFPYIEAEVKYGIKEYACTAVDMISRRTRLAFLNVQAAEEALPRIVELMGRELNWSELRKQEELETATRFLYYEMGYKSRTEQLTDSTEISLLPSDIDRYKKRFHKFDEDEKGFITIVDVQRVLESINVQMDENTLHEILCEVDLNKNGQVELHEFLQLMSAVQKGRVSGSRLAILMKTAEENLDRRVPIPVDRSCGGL

Some of the results follow. Most entries show no effect beyond the scatter of the controls.

Compound in this experiment: CN[C@@H]1C[C@H]2O[C@@](C)([C@@H]1OC)n1c3ccccc3c3c4c(c5c6ccccc6n2c5c31)C(=O)NC4 [staurosporine]
The experiment is described as follows: log2 fold change of tryptic peptide abundance, ligand vs vehicle (limited proteolysis) (log2 ratio); higher = more trypsin-susceptible (destabilized). As to conditions: ligand concentration: 20 uM; sample: mouse liver crude lysate; replicate design: treated separately.
Take “UniProt Q64514 (peptide sequence: DLPFIVSHR, peptide start residue: 905)”: the log2 fold change is 0.174.

For the target “UniProt Q62255 (peptide sequence: LQQLVENIDKK, peptide start residue: 690)”, the log2 fold change is -0.663.

“UniProt Q62318 (peptide sequence: VLVNDAQK, peptide start residue: 313)”: the log2 fold change is -0.171.

Take “UniProt Q64374 (peptide sequence: LWVACYNGGR, peptide start residue: 214)”: the log2 fold change turned out to be 0.401.

With “UniProt Q61937 (peptide sequence: AKMQASIEK, peptide start residue: 247)”, the log2 fold change was -0.288.

As to “UniProt Q64435 (peptide sequence: EIVEHLSER, peptide start residue: 44)”, the log2 fold change was -0.816.

Take “UniProt Q641K1 (peptide sequence: INTDSTESDTAR, peptide start residue: 28)”: the log2 fold change came to 0.426.

With “UniProt Q64321 (peptide sequence: FLHSYDLK, peptide start residue: 415)”, the log2 fold change amounted to 0.259.

On to “UniProt Q62084 (peptide sequence: VTVKYDR, peptide start residue: 37)”, for which the log2 fold change is -0.119.

In the case of “UniProt Q62179 (peptide sequence: GYQALSDSSPGPR, peptide start residue: 772)”, the log2 fold change was -0.147.

For “UniProt Q64707 (peptide sequence: QREEEEQKLQEK, peptide start residue: 114)”, the log2 fold change is -0.48.

In the case of “UniProt Q64521 (peptide sequence: LVGAIVYYDGQHNDAR, peptide start residue: 212)”, the log2 fold change is -0.66.
